Here are results for 40 sequences from paper PMC7862700.

Sequences of proteins named here, by UniProt entry; tags and fusion partners are left off. A change or cut given only in a name is not applied to a line headed by its entry.
UniProt P32519: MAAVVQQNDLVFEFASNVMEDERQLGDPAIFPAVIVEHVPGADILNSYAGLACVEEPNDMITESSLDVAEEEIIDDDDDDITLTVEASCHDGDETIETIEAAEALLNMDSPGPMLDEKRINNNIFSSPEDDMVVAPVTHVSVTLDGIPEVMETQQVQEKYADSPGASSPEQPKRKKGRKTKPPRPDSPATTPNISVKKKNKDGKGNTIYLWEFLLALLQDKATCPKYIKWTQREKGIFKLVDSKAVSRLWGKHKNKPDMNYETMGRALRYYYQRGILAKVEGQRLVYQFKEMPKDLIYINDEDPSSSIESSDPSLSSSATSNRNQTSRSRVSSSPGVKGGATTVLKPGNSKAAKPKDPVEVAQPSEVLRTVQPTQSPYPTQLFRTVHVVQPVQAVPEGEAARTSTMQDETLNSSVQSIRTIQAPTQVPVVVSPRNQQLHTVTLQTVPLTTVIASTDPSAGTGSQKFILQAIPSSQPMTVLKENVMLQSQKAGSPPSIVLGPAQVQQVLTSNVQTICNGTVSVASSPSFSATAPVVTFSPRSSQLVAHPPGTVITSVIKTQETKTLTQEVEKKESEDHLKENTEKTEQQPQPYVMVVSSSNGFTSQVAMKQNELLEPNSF

Only a part is listed here, and it is no random draw. The list shows a part of the results. For part of these data: The exact form of the protein is not confirmed.

The first experiment addresses ELF1 (UniProt P32519). Nature of the experiment: DAPPL (digital affinity profiling via proximity ligation, sequencing). The note with it: 10 mM Tris-HCl pH 7.5, 50 mM NaCl, 1 mM DTT, 4% glycerol, room temperature, 30 min; GST-TFs on glutathione beads, 16-mer random dsDNA library, 0.1% …; high values mean tight binding; double strand, one strand shown; scale: fold enrichment (6-mer frequency, TF over GST control).
CCCCAT gave a binding signal of 1.31.
ATTGAT gave a binding signal of 1.31.
Sequence ATCGAA showed a binding signal of 1.14.
Still for that read-out and setting: next, ATGACG: 1.34.

In a further experiment the target is T1, ELK4 (UniProt P28324-2).
T1 sequence: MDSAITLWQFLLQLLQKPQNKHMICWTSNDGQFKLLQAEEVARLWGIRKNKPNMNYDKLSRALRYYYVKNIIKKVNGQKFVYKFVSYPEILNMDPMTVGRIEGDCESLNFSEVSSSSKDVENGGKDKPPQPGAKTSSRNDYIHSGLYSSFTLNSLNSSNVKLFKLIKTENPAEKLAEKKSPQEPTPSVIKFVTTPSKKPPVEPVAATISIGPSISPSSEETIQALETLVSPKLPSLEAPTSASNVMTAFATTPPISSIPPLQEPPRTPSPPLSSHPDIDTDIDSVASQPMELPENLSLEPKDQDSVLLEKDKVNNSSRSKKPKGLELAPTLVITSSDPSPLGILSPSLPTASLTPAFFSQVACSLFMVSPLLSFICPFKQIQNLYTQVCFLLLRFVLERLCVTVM
The experiment is described as above. The following applies: 10 mM Tris-HCl pH 7.5, 50 mM NaCl, 1 mM DTT, 4% glycerol, room temperature, 30 min; GST-TFs on glutathione beads, 16-mer random dsDNA library, 0.1% …; high values mean tight binding; double strand, one strand shown; scale: fold enrichment (6-mer frequency, TF over GST control).
Take CCCCAT: the binding signal is 1.22.
Same read-out and setting: next, ATTGAT: 1.38; ATCGAA: 1.14.
Still for that read-out and setting: next, ATGACG: 1.47.

Another experiment deals with T2, ETV4 (UniProt P43268).
T2 sequence: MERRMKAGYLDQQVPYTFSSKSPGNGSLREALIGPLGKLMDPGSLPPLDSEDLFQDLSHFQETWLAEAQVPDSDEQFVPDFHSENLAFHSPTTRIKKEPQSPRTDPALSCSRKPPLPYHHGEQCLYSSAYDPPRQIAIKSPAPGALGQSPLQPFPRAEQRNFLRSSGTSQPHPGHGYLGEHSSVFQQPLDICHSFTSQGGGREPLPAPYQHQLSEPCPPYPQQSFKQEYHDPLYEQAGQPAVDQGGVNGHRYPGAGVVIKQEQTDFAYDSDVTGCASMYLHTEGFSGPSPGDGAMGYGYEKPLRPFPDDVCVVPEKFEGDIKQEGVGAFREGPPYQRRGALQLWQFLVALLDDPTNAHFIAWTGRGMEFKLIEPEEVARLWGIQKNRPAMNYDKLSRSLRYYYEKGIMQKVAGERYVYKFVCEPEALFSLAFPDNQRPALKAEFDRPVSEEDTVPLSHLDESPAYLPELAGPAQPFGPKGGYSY
The experiment is described as above. The following applies: 10 mM Tris-HCl pH 7.5, 50 mM NaCl, 1 mM DTT, 4% glycerol, room temperature, 30 min; GST-TFs on glutathione beads, 16-mer random dsDNA library, 0.1% …; high values mean tight binding; double strand, one strand shown; scale: fold enrichment (6-mer frequency, TF over GST control).
In turn, TCCGGA came in with a binding signal of 2.61.
Same read-out and setting: next, ATTGCT: 1.2; TACCAC: 1.26.
Turning to CTATTC, the binding signal turned out to be 1.26.
The same measure, in the same setting: the result for TCACAT reads 1.28; that for ACTCCC, 1.38.
GTATTC: the binding signal was 1.2.
Same read-out and setting: the result for TCCACA reads 1.31.
On the same count and under the same terms, next, TCTCTA: 1.35.
TATGAA gave a binding signal of 1.2.
Still for that read-out and setting: the result for TCCCCA reads 1.35.
As for TATTCC, the binding signal came out at 1.47.
In turn, GTTTAC yielded a binding signal of 1.08.
CTAATT: the binding signal came to 1.33.
On the same count and under the same terms, next, AAAATC: 1.11.
Sequence AAATGT gave a binding signal of 1.34.
Same read-out and setting: the result for TCTTGC reads 1.25.
Same read-out and setting: the result for TGTTAT reads 1.4.
Regarding ATCATG, the binding signal is 1.17.
Same read-out and setting: the result for CATTCC reads 1.33.
On the same count and under the same terms, next, CCGATC: 1.28.
The same measure, in the same setting: next, CCCCAT: 1.36; CTTACC: 1.18.
As to TATCTC, the binding signal amounted to 1.38.
Same read-out and setting: next, ATTGAT: 1.24.
Regarding ACTAAA, the binding signal stood at 1.22.
Still for that read-out and setting: next, GTACAT: 1.47.
For the sequence GAAGCA, the binding signal came out at 1.41.
Same read-out and setting: next, AATTGG: 1.35.
Same read-out and setting: next, ACCACC: 1.22; CTCAAA: 1.2; AAGCTC: 1.16.
Still for that read-out and setting: next, ACGAAC: 1.14; GTTCTT: 1.26.
CCCGCC showed a binding signal of 1.45.
Same read-out and setting: the result for TCATTT reads 1.3; that for GTTCTA, 1.22; that for ATCGAA, 1.1.
Regarding ATGACG, the binding signal is 1.4.
Still for that read-out and setting: the result for CTATCT reads 1.39.
